Consider one substance from patent publication US20240293579A1, “Composition Comprising Trim31 and Rhbdf2 for Treatment of NAFLD/NASH” (CHONGQING MEIPULAN TECHNOLOGY CO., LTD, priority 2021, published 2024).

By UniProt entry, the sequences of proteins in these tests, tags left out. Where a name states a change or a piece, a line headed by the entry shows the natural chain unless it says otherwise.
UniProt Q8R0K2: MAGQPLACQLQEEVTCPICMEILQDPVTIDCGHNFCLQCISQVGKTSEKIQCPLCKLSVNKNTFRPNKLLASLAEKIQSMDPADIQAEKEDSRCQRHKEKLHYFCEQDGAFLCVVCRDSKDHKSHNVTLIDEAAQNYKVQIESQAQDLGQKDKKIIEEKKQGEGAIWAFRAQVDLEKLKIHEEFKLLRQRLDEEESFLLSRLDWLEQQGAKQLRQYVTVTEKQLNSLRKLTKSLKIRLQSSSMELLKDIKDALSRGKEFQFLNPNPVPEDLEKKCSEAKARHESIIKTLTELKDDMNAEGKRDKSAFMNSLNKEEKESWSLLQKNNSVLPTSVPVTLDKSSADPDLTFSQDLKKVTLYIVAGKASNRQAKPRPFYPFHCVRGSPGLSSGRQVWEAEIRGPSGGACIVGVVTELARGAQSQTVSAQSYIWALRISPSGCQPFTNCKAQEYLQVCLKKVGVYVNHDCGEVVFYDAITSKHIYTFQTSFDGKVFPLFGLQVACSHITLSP

No constants are given. Whether binding was seen depends on the method and setting. In cells and extracts the contact can be indirect. Tags and fused reporters may be left off the sequences shown.

The target of the assay is T1, mouse Rhbdf2, full-length, HA-tagged (mouse) (UniProt Q80WQ6).
T1 sequence (looked up): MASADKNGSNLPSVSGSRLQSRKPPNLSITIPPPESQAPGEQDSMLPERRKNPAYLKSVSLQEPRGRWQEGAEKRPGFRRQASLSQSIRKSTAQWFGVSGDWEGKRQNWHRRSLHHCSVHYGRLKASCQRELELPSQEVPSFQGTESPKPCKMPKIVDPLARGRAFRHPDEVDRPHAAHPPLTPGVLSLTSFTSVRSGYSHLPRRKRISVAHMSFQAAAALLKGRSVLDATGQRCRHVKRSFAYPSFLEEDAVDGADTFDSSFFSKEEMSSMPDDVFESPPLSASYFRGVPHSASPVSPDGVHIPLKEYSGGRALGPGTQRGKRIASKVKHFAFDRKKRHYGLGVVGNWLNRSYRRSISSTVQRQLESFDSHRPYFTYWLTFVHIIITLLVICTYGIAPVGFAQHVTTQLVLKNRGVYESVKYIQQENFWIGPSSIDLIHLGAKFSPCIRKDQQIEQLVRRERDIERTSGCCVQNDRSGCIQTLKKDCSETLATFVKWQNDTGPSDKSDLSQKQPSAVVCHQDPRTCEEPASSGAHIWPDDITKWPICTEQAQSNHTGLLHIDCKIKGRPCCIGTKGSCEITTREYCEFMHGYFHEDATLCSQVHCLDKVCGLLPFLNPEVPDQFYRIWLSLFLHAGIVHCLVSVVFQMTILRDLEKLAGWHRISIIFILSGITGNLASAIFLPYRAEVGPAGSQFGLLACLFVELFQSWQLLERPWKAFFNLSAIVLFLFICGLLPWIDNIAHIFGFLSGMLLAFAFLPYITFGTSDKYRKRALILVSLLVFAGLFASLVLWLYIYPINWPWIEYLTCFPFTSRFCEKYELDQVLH
Description: co-immunoprecipitation in transfected mouse hepatocytes.

As for “mouse Trim31 CC domain deletion mutant, Flag-tagged (Trim31-Flag CC^Δ) (from UniProt Q8R0K2) (enzyme)”, the binding result is listed as “no binding”.
